PMC11210491

Amino acid sequences for entries named in this document (tags omitted). A change or cut given only in a name is not applied to a line headed by its entry.
UniProt P37231: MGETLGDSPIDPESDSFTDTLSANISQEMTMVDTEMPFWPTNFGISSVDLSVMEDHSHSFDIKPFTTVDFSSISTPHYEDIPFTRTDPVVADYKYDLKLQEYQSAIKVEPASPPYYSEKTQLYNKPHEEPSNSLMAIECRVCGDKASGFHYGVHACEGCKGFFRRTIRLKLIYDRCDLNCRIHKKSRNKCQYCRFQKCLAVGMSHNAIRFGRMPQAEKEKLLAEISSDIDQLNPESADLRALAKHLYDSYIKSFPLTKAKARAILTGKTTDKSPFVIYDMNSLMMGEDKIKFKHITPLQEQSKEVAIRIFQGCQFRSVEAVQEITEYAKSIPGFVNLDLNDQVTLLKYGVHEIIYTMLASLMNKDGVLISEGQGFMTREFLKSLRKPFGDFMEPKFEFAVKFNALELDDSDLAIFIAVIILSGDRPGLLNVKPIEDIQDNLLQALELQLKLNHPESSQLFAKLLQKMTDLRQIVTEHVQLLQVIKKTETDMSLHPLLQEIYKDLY
UniProt Q9NR19: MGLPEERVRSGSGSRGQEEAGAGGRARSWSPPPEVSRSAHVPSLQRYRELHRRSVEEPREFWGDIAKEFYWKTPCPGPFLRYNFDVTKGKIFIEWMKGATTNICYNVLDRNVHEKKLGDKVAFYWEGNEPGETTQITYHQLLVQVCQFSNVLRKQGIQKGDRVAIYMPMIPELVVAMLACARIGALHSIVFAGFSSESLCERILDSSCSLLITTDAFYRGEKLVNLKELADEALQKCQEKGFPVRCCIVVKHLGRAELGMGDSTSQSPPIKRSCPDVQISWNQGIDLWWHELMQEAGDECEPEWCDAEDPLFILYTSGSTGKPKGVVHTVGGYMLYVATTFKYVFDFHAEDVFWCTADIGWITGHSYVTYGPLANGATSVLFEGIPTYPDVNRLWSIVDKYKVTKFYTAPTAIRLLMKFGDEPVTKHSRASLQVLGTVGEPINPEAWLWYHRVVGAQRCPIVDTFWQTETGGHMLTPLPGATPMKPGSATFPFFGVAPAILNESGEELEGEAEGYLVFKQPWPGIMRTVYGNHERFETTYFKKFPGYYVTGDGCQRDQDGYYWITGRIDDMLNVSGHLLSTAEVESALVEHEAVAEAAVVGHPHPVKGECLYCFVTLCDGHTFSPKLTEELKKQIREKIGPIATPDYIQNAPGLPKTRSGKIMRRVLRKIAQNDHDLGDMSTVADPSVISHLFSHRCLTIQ

Assays:
[1] = target: GST-PPARγ (human) (UniProt P37231); test: pull-down; GST pull-down: 200 ng purified His-ACSS2 with 100 ng GST-PPARγ and glutathione agarose beads; 50 mM tris-HCl pH 7.5, 1% Triton X-100, 150 mM NaCl, 1 mM dithiothreitol, 0.5 mM EDTA, 4 °C; both purified
[2] = target: VC155-HA-PPARγ (peroxisome-proliferator-activated receptor gamma) (human) (UniProt P37231); test: split reporter; HEK293T cells cotransfected with pBiFC-VN173 and pBiFC-VC155 fusion plasmids (2 μg); YFP fluorescence imaged after 24 h, DAPI for nuclei
[3] = target: VC155-HA-PPARγ (peroxisome-proliferator-activated receptor gamma) (human) (UniProt P37231); test: split reporter; SH-SY5Y cells transfected with 2 μg of the BiFC plasmids; with 10 μM NaAC, 1 μM NaPPA and 0.1 μM NaBA alone or together for 24 h
[4] = target: His-ACSS2 (human) (UniProt Q9NR19); test: pull-down; reverse direction of the pull-down of purified His-ACSS2 and GST-PPARγ (ACSS2 pulling down PPARγ); conditions not given; both purified

His-ACSS2 (from UniProt Q9NR19-1 1-701) (enzyme)
binding [1]: binds

VN173-Flag-ACSS2 (acetyl-coenzyme A synthetase short-chain family member 2) (from UniProt Q9NR19-1 1-701)
binding [2]: binds | binding [3]: binds

GST-PPARγ (from UniProt P37231-2) (receptor)
binding [4]: binds

Results are given in words; binding and its absence hold for the method and conditions named. A result given as binding can be weak or reduced; the word gives no strength. For some of these results: Binding seen in cells or lysates may run through a third protein.
